Measurements published in patent US20220154282A1, “DETECTION MEANS, COMPOSITIONS AND METHODS FOR MODULATING SYNOVIAL SARCOMA CELLS” (The Broad Institute, Inc., priority 2019, published 2022).
For at least one compound, name, drawing or mass did not settle the structure.

Tested on: SyS cell lines (SYO-1, HSSYII) and primary MSCs
Assay: In vitro drug assay, transcriptional state (scRNA-Seq) under abemaciclib, panobinostat, TNF
Format: cell-based, human
Conditions: for core oncogenic program: low doses (100 or 200 nM abemaciclib, 15 or 30 ng/ml TNF, 12.5 or 25 nM panobinostat), scRNA-Seq, mixed-effects

Row | Compound | CDKN1A (p21) expression (SyS cells vs MSCs, low dose) | SS18-SSX program (SyS cells, low dose) | expression of cell cycle genes (SyS cells, low dose) | immunogenic phenotype: antigen presentation, IFN responses (and induced-self antigens as MICA/B) (SyS cells, low dose) | core oncogenic program (SyS cells)
1 | Cc1[nH]c2ccccc2c1CCNCc1ccc(/C=C/C(=O)NO)cc1 [panobinostat] | selectively induced | repressed | decreased | induced an immunogenic phenotype | markedly repressed
2 | CCN1CCN(Cc2ccc(Nc3ncc(F)c(-c4cc(F)c5nc(C)n(C(C)C)c5c4)n3)nc2)CC1 [abemaciclib] |  |  | repressed |  | without impacting
